# Experimental data reported in the supplement of paper PMC8728848.
# This is one part of the list.
# Key:
# Assay in all cases: glycan array binding signal (z-score within array); higher = stronger binding
# Conditions in all cases: glycan notation: IUPAC condensed, linker removed
# [1] = molecular target: Neu5Ac(a2-3)Gal(b1-3)[Fuc(a1-4)]GlcNAc
# How it was run: (§1)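 Arrays were curated from the Consortium for Functional Glycomics database, 3228 in total, and kept only where the protein sequence was available. Binding is expressed as a within-array Z-score. This score was averaged across arrays of the same protein sequence at different concentrations or buffers and across linkers, and negative values can be read as non-binding.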
# [2] = molecular target: Neu5Ac(a2-3)Gal(b1-3)[Fuc(a1-4)]GlcNAc(b1-3)Gal(b1-3)[Fuc(a1-4)]GlcNAc
# How it was run: as §1
# [3] = molecular target: Neu5Ac(a2-3)Gal(b1-3)[Fuc(a1-4)]GlcNAc(b1-3)Gal(b1-4)[Fuc(a1-3)]GlcNAc
# How it was run: as §1
# [4] = molecular target: Neu5Ac(a2-3)Gal(b1-3)[GlcNAc(b1-6)]GalNAc
# How it was run: as §1
# [5] = molecular target: Neu5Ac(a2-3)Gal(b1-3)[Neu5Ac(a2-6)]GalNAc
# How it was run: as §1
# [6] = molecular target: Neu5Ac(a2-3)Gal(b1-3)[Neu5Ac(a2-6)]GlcNAc(b1-3)[Fuc(a1-3)[Gal(b1-4)]GlcNAc(b1-6)]Gal(b1-4)Glc
# How it was run: as §1
# [7] = molecular target: Neu5Ac(a2-3)Gal(b1-3)]Neu5Ac(a2-3)Gal(b1-4)]GlcNAc
# How it was run: as §1
# Neu5Ac(a2-3)Gal(b1-4)Glc = molecular target: Neu5Ac(a2-3)Gal(b1-4)Glc
# How it was run: as §1
# [8] = molecular target: Neu5Ac(a2-3)Gal(b1-4)GlcNAc
# How it was run: as §1
# [9] = molecular target: Neu5Ac(a2-3)Gal(b1-4)GlcNAc(b1-2)Man
# How it was run: as §1
# [10] = molecular target: Neu5Ac(a2-3)Gal(b1-4)GlcNAc(b1-2)Man(a1-3)[GlcNAc(b1-4)][Neu5Ac(a2-3)Gal(b1-4)GlcNAc(b1-2)Man(a1-6)]Man(b1-4)GlcNAc(b1-4)GlcNAc
# How it was run: as §1
# [11] = molecular target: Neu5Ac(a2-3)Gal(b1-4)GlcNAc(b1-2)Man(a1-3)[Neu5Ac(a2-3)Gal(b1-4)GlcNAc(b1-2)Man(a1-6)]Man(b1-4)GlcNAc(b1-4)GlcNAc
# How it was run: as §1
# [12] = molecular target: Neu5Ac(a2-3)Gal(b1-4)GlcNAc(b1-2)Man(a1-3)[Neu5Ac(a2-3)Gal(b1-4)GlcNAc(b1-2)Man(a1-6)]Man(b1-4)GlcNAc(b1-4)[Fuc(a1-6)]GlcNAc
# How it was run: as §1
# [13] = molecular target: Neu5Ac(a2-3)Gal(b1-4)GlcNAc(b1-2)Man(a1-3)[Neu5Ac(a2-6)Gal(b1-4)GlcNAc(b1-2)Man(a1-6)]Man(b1-4)GlcNAc(b1-4)GlcNAc
# How it was run: as §1
# [14] = molecular target: Neu5Ac(a2-3)Gal(b1-4)GlcNAc(b1-2)[Neu5Ac(a2-3)Gal(b1-4)GlcNAc(b1-4)]Man(a1-3)[GlcNAc(b1-4)][Neu5Ac(a2-3)Gal(b1-4)GlcNAc(b1-2)[Neu5Ac(a2-3)Gal(b1-4)GlcNAc(b1-6)]Man(a1-6)]Man(b1-4)GlcNAc(b1-4)GlcNAc
# How it was run: as §1
# [15] = molecular target: Neu5Ac(a2-3)Gal(b1-4)GlcNAc(b1-2)[Neu5Ac(a2-3)Gal(b1-4)GlcNAc(b1-4)]Man(a1-3)[GlcNAc(b1-4)][Neu5Ac(a2-3)Gal(b1-4)GlcNAc(b1-4)Man(a1-6)]Man(b1-4)GlcNAc(b1-4)GlcNAc
# How it was run: as §1
# [16] = molecular target: Neu5Ac(a2-3)Gal(b1-4)GlcNAc(b1-2)[Neu5Ac(a2-3)Gal(b1-4)GlcNAc(b1-6)]Man(a1-6)[Neu5Ac(a2-3)Gal(b1-4)GlcNAc(b1-2)Man(a1-3)]Man(b1-4)GlcNAc(b1-4)GlcNAc
# How it was run: as §1
# [17] = molecular target: Neu5Ac(a2-3)Gal(b1-4)GlcNAc(b1-2)[Neu5Ac(a2-3)Gal(b1-4)GlcNAc(b1-6)]Man(a1-6)[Neu5Ac(a2-3)Gal(b1-4)GlcNAc(b1-2)Man(a1-3)][GlcNAc(b1-4)]Man(b1-4)GlcNAc(b1-4)GlcNAc
# How it was run: as §1
# [18] = molecular target: Neu5Ac(a2-3)Gal(b1-4)GlcNAc(b1-3)Gal
# How it was run: as §1
# [19] = molecular target: Neu5Ac(a2-3)Gal(b1-4)GlcNAc(b1-3)Gal(b1-3)GlcNAc
# How it was run: as §1
# [20] = molecular target: Neu5Ac(a2-3)Gal(b1-4)GlcNAc(b1-3)Gal(b1-4)GlcNAc
# How it was run: as §1
# [21] = molecular target: Neu5Ac(a2-3)Gal(b1-4)GlcNAc(b1-3)Gal(b1-4)GlcNAc(b1-2)Man(a1-3)[Neu5Ac(a2-3)Gal(b1-4)GlcNAc(b1-3)Gal(b1-4)GlcNAc(b1-2)Man(a1-6)]Man(b1-4)GlcNAc(b1-4)GlcNAc
# How it was run: as §1
# [22] = molecular target: Neu5Ac(a2-3)Gal(b1-4)GlcNAc(b1-3)Gal(b1-4)GlcNAc(b1-3)Gal(b1-4)GlcNAc
# How it was run: as §1
# [23] = molecular target: Neu5Ac(a2-3)Gal(b1-4)GlcNAc(b1-3)Gal(b1-4)GlcNAc(b1-3)Gal(b1-4)GlcNAc(b1-2)Man(a1-3)[Neu5Ac(a2-3)Gal(b1-4)GlcNAc(b1-3)Gal(b1-4)GlcNAc(b1-3)Gal(b1-4)GlcNAc(b1-2)Man(a1-6)]GalNAc
# How it was run: as §1
# [24] = molecular target: Neu5Ac(a2-3)Gal(b1-4)GlcNAc(b1-3)Gal(b1-4)GlcNAc(b1-3)GalNAc
# How it was run: as §1
# [25] = molecular target: Neu5Ac(a2-3)Gal(b1-4)GlcNAc(b1-3)Gal(b1-4)GlcNAc(b1-3)[Neu5Ac(a2-3)Gal(b1-4)GlcNAc(b1-3)Gal(b1-4)GlcNAc(b1-6)]GalNAc
# How it was run: as §1
# [26] = molecular target: Neu5Ac(a2-3)Gal(b1-4)GlcNAc(b1-3)Gal(b1-4)GlcNAc(b1-6)[Gal(b1-3)]GalNAc
# How it was run: as §1
# [27] = molecular target: Neu5Ac(a2-3)Gal(b1-4)GlcNAc(b1-3)Gal(b1-4)[Fuc(a1-3)]GlcNAc
# How it was run: as §1
# [28] = molecular target: Neu5Ac(a2-3)Gal(b1-4)GlcNAc(b1-3)GalNAc
# How it was run: as §1
# [29] = molecular target: Neu5Ac(a2-3)Gal(b1-4)GlcNAc(b1-3)[Neu5Ac(a2-3)Gal(b1-4)GlcNAc(b1-6)]GalNAc
# How it was run: as §1
binder,measurement,setting,value
"CD4 (Rattus norvegicus), P05540 (protein) MCRGFSFRHLLPLLLLQLSKLLVVTQGSTSITAYKSEGESAEFSFPLNLGEESLQGELRWKAEKAPSSQSWITFSLKNQKVSVQKSTSNPKFQLSETLPLTLQIPQVSLQFAGSGNLTLTLDRGILYQEVNLVVMKVTQPDSNTLTCEVMGPTSPKMRLILKQENQEARVSRQEKVIQVQAPEAGVWQCLLSEGEEVKMDSKIQVLSKGLNSGGGSGGGTGGGDLAPQMLRELQETNAALQDVRELLRQQVKEITFLKNTVMECDACGLDRNLPPLAPLGPHPETLVKVKDAEDQLGARVGYIELDLNSGKILESFRPEERFPMMSTFKVLLCGAVLSRIDAGQEQLGRRIHYSQNDLVEYSPVTEKHLTDGMTVRELCSAAITMSDNTAANLLLTTIGGPKELTAFLHNMGDHVTRLDRWEPELNEAIPNDERDTTMPVAMATTLRKLLTGELLTLASRQQLIDWMEADKVAGPLLRSALPAGWFIADKSGAGERGSRGIIAALGPDGKPSRIVVIYTTGSQATMDERNRQIAEIGASLIKHW",glycan array binding signal (z-score),[1],1.6
same,glycan array binding signal (z-score),[2],0.245
same,glycan array binding signal (z-score),[3],0.511
same,glycan array binding signal (z-score),[4],0.032
same,glycan array binding signal (z-score),[5],-0.438
same,glycan array binding signal (z-score),[6],1.65
same,glycan array binding signal (z-score),[7],2.57
same,glycan array binding signal (z-score),Neu5Ac(a2-3)Gal(b1-4)Glc,-0.058
same,glycan array binding signal (z-score),[8],-1.67
same,glycan array binding signal (z-score),[9],-0.75
same,glycan array binding signal (z-score),[10],0.268
same,glycan array binding signal (z-score),[11],-0.687
same,glycan array binding signal (z-score),[12],-1.2
same,glycan array binding signal (z-score),[13],-0.682
same,glycan array binding signal (z-score),[14],0.008
same,glycan array binding signal (z-score),[15],-0.2
same,glycan array binding signal (z-score),[16],-0.485
same,glycan array binding signal (z-score),[17],-0.436
same,glycan array binding signal (z-score),[18],-0.672
same,glycan array binding signal (z-score),[19],-0.14
same,glycan array binding signal (z-score),[20],-1.14
same,glycan array binding signal (z-score),[21],0.678
same,glycan array binding signal (z-score),[22],1.87
same,glycan array binding signal (z-score),[23],3.17
same,glycan array binding signal (z-score),[24],-0.775
same,glycan array binding signal (z-score),[25],0.591
same,glycan array binding signal (z-score),[26],0.031
same,glycan array binding signal (z-score),[27],-0.652
same,glycan array binding signal (z-score),[28],0.368
same,glycan array binding signal (z-score),[29],-0.404

# Exported bar-delimited: part of the list above.
binder | measurement | setting | value
CD4 (Rattus norvegicus), P05540 (protein) MCRGFSFRHLLPLLLLQLSKLLVVTQGSTSITAYKSEGESAEFSFPLNLGEESLQGELRWKAEKAPSSQSWITFSLKNQKVSVQKSTSNPKFQLSETLPLTLQIPQVSLQFAGSGNLTLTLDRGILYQEVNLVVMKVTQPDSNTLTCEVMGPTSPKMRLILKQENQEARVSRQEKVIQVQAPEAGVWQCLLSEGEEVKMDSKIQVLSKGLNSGGGSGGGTGGGDLAPQMLRELQETNAALQDVRELLRQQVKEITFLKNTVMECDACGLDRNLPPLAPLGPHPETLVKVKDAEDQLGARVGYIELDLNSGKILESFRPEERFPMMSTFKVLLCGAVLSRIDAGQEQLGRRIHYSQNDLVEYSPVTEKHLTDGMTVRELCSAAITMSDNTAANLLLTTIGGPKELTAFLHNMGDHVTRLDRWEPELNEAIPNDERDTTMPVAMATTLRKLLTGELLTLASRQQLIDWMEADKVAGPLLRSALPAGWFIADKSGAGERGSRGIIAALGPDGKPSRIVVIYTTGSQATMDERNRQIAEIGASLIKHW | glycan array binding signal (z-score) | [19] | -0.14
same | glycan array binding signal (z-score) | [20] | -1.14
